# Measured values reported in publication PMC8384837.
# Where a chain is given by its changes, count along the chain named. Some of the results follow.
# Experiments:
# Conditions in all cases: yeast three-hybrid, YBZ-1, SC-Leu-His + 0.5 mM 3-AT, 4 days
# [1] = target: T1, PUM1 PUF domain R6-AFS N1043A + Y1044F + Q1047S (Homo sapiens) (UniProt Q14671)
# T1 sequence: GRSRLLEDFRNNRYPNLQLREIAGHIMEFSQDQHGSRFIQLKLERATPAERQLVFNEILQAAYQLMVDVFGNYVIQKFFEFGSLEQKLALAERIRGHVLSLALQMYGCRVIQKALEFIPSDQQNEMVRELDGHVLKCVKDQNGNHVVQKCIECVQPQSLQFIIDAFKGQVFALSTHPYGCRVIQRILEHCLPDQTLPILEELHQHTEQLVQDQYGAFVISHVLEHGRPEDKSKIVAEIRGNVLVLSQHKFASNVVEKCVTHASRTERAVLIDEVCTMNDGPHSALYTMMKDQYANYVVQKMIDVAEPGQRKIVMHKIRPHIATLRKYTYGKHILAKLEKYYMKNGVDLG
# [2] = target: T2, PUM1 PUF domain R6-CHR N1043C + Y1044H + Q1047R (Homo sapiens) (UniProt Q14671)
# T2 sequence: T1 sequence with A216C, F217H, S220R
# [3] = target: T3, PUM1 PUF domain R6-CYT N1043C + Q1047T (Homo sapiens) (UniProt Q14671)
# T3 sequence: T1 sequence with A216C, F217Y, S220T
# [4] = target: T4, PUM1 PUF domain R6-GFM N1043G + Y1044F + Q1047M (Homo sapiens) (UniProt Q14671)
# T4 sequence: T1 sequence with A216G, S220M
# [5] = target: T5, PUM1 PUF domain R6-GWQ N1043G + Y1044W (Homo sapiens) (UniProt Q14671)
# T5 sequence: T1 sequence with A216G, F217W, S220Q
# [6] = target: T6, PUM1 PUF domain R6-IWR N1043I + Y1044W + Q1047R (Homo sapiens) (UniProt Q14671)
# T6 sequence: T1 sequence with A216I, F217W, S220R
# [7] = target: T7, PUM1 PUF domain R6-RHR N1043R + Y1044H + Q1047R (Homo sapiens) (UniProt Q14671)
# T7 sequence: T1 sequence with A216R, F217H, S220R
# [8] = target: T8, PUM1 PUF domain R6-RYG N1043R + Q1047G (Homo sapiens) (UniProt Q14671)
# T8 sequence: T1 sequence with A216R, F217Y, S220G
# [9] = target: T9, PUM1 PUF domain R6-RYR N1043R + Q1047R (Homo sapiens) (UniProt Q14671)
# T9 sequence: T1 sequence with A216R, F217Y, S220R
# [10] = target: T10, PUM1 PUF domain R6-VYR N1043V + Q1047R (Homo sapiens) (UniProt Q14671)
# T10 sequence: T1 sequence with A216V, F217Y, S220R
# [11] = target: T11, PUM1 PUF domain R6-YWR N1043Y + Y1044W + Q1047R (Homo sapiens) (UniProt Q14671)
# T11 sequence: T1 sequence with A216Y, F217W, S220R
sequence,measurement,setting,value
GGCUAGAACUAGUGGAUCCCCCGGCGCCCGGCGGCUCGAGCCCGGGUAAGUGCAAAUAGUCUGCAUGCCGCCGGGCGCCAUGCCUGCAGGUCGACUCUAGAAAACAUG,binding signal (log2 enrichment (interaction score)),[1],-4.72
same,binding signal (log2 enrichment (interaction score)),[2],-3.93
same,binding signal (log2 enrichment (interaction score)),[3],-5.46
same,binding signal (log2 enrichment (interaction score)),[4],-3.09
same,binding signal (log2 enrichment (interaction score)),[5],-3.75
same,binding signal (log2 enrichment (interaction score)),[6],-1
same,binding signal (log2 enrichment (interaction score)),[7],-3.02
same,binding signal (log2 enrichment (interaction score)),[8],-3.78
same,binding signal (log2 enrichment (interaction score)),[9],-2.48
same,binding signal (log2 enrichment (interaction score)),[10],-5.12
same,binding signal (log2 enrichment (interaction score)),[11],-4.87

# 2 records picked at random from those above, as already listed:
sequence,measurement,setting,value
GGCUAGAACUAGUGGAUCCCCCGGCGCCCGGCGGCUCGAGCCCGGGUAAGUGCAAAUAGUCUGCAUGCCGCCGGGCGCCAUGCCUGCAGGUCGACUCUAGAAAACAUG,binding signal (log2 enrichment (interaction score)),[6],-1
same,binding signal (log2 enrichment (interaction score)),[1],-4.72
